Hit rate of the full screen: of about 330,000 compounds, about 7,700 (2.3%) were called active. Inconclusive means that the source gave no clear call. Such entries were picked first, then a sample of the others. The call rests on the fitted dose curve; in most records, active means well fitted inhibition curve with a large enough effect; inconclusive means small, poorly fitted or top-dose-only effect, or effect the other way; inactive means flat fitted curve, though single readings scatter. Potencies of inconclusive entries are doubtful fits and often do not repeat.
Assay: qHTS screen for small molecules that inhibit ELG1-dependent DNA repair in human embryonic kidney (HEK293T) cells expressing luciferase-tagged ELG1; further: nearly all actives have a fitted effect of over 55% in size
Details: HEK293T ELG1-luciferase reporter, luminescence, 16 h, DNA damage induced by 5-fluorouridine; activity change, negative = inhibition: at 46.1 µM (top of the series)
Outline: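 HEK293T cells expressing luciferase-tagged ELG1 (2,000/well) received 5-Fluorouridine plus compound or DMSO for 16 hr at 37 °C. Luciferase was read by ONE-Glo luminescence after 30 min at room temperature.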
For `CCc1ccc(-c2csc(NC(=O)C3CCCO3)c2C(=O)OC(C)C)cc1` (stereo unspecified), the “activity change, negative = inhibition” value was inactive: -2.56%. In the case of `CC(=O)NNC(=O)c1csc(Cc2c(Cl)sc3ccc(Cl)cc23)n1`, the Potency is reported as inconclusive: 8.2 µM [inhibitor, partial curve]. For `O=C(NNC(=O)c1cc(-c2ccccc2)nc2ccccc12)c1csc(N2CCOCC2)n1`, the Potency was inconclusive: 1.3 µM [inhibitor, full curve, poor fit]. In the case of `CCOC(=O)CSc1nc2ccc(C)cc2cc1C#N`, the Potency is reported as inconclusive: 7.31 µM [activator, partial curve]. For `O=C1Cc2ccccc2Sc2c(OCCN3CCCCC3)cccc21`, the “activity change, negative = inhibition” value was inactive: 2.14%. With `O=C(CSc1nnc(-c2cccnc2)s1)Nc1cccc(C(=O)O)c1` the “activity change, negative = inhibition” value was inactive: 2.56%. With `Oc1c(Cl)cc(Cl)cc1CNc1nccs1` the “activity change, negative = inhibition” value was inactive: 7.19%. For `Cc1ccc(C(c2nnnn2CS(=O)(=O)c2ccc(C)cc2)N2CCN(c3ncccn3)CC2)cc1` (stereo unspecified), the Potency was inconclusive: 23.1 µM [inhibitor, single point]. In the case of `CCc1ccc(N2C(=O)C(Cl)=C(N3CCCCCC3)C2=O)cc1`, the “activity change, negative = inhibition” value is reported as inactive: 1.73%. For `O=C(CN1CCN(C(=O)c2cccc(S(=O)(=O)N3CCCC3)c2)CC1)Nc1cccc(F)c1`, the “activity change, negative = inhibition” value was inactive: -2.41%. With `CC(C)[C@@H](COc1ccccc1)N1CCN(Cc2ccccc2)CCC1=O` the “activity change, negative = inhibition” value was inactive: -9.02%. With `Cc1c(C)c2ccc(OCC(=O)Nc3cccnc3)c(C)c2oc1=O` the Potency was inconclusive: 11.6 µM [activator, partial curve]. For `Cc1cc(N2CCN(S(=O)(=O)c3ccc(Br)cc3)CC2)n2ncnc2n1`, the “activity change, negative = inhibition” value was inactive: -0.388%. In the case of `O=C(CCN1CCOCC1)NNC(=S)NC(=O)c1ccccc1`, the Potency is reported as inconclusive: 7.3 µM [inhibitor, single point]. In the case of `CC1CCN(S(=O)(=O)c2ccc3c(c2)N(CC(=O)NCCCN(Cc2ccccc2)C(C)C)C(=O)CO3)CC1`, the Potency is reported as inconclusive: 16.4 µM [activator, partial curve]. With `CCn1c(-c2ccccc2)ccc(C#N)c1=O` the “activity change, negative = inhibition” value was inactive: 21.4%. With `CC1(C)CN=C(N(C(=O)Nc2ccccc2)c2ccccc2F)S1` the “activity change, negative = inhibition” value was inactive: 23.1%. For `Cc1ccnc(NC(=O)C(C)N2C(=O)c3ccccc3S2(=O)=O)c1` (stereo unspecified), the Potency was inconclusive: 4.11 µM [inhibitor, partial curve, poor fit]. In the case of `O=C(Nc1cc(N2CCCCC2)ncn1)c1ccccc1`, the Potency is reported as inconclusive: 23.1 µM [activator, single point]. With `C[C@H]1CN([C@@H](C)CO)C(=O)Cc2cc(NS(=O)(=O)c3cccs3)ccc2O[C@H]1CN(C)S(=O)(=O)c1cn(C)cn1` the Potency was inconclusive: 18.3 µM [activator, single point]. With `O=C(NCCO)C(=O)c1c(-c2ccccc2)cc2ccccn12` the “activity change, negative = inhibition” value was inactive: 14.2%.

From PubChem BioAssay AID504467 (National Center for Advancing Translational Sciences (NCATS), 2011)
On the % scale 0 is the no-effect control and ±100 the full control effect; potency means the concentration at half of the fitted maximal effect.
